In this assay the target is murine AA amyloid deposits (in mice with systemic AA amyloidosis, H2/IL-6 transgenic) (mouse). Briefly: pulldown of 125I-labelled peptide with the substrate pellet (correlation plot against 125I-Igp5).

These are yes or no findings as the source states them, for the method shown. Binding seen in cells or lysates may run through a third protein. Binding can be weak; no strength is given.

For the molecule KAQKAQAKQAKQAQKAQKAQAKQAKQ (125I label) [125I-p5], the binding entry is listed as “binds”.

The values above are taken from patent US20250368729A1.
